Data source: PubChem BioAssay AID743456 (Peter MacCallum Cancer Centre, 2014)
Here is one part, drawn at random, of 878 deposited reagents. Of all reagents, 27 (3.1%) were called active. 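27 mimics are marked active, unlike an earlier stated count of 24; the viability threshold is described inconsistently.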 Further read-outs or replicates are left out here. Not stated in the record: the amount of reagent.

- Purpose: 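Mimic library tested for viability and apoptosis changes under vorinostat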 (primary screen)
- System: human HCT116-VR colon cancer cells, a vorinostat-resistant HCT116 line
- Reagents: miRNA mimic
- Duration: about 3 days from transfection to readout; drug present for the last 24 h
- Challenge: vorinostat at 2.5 µM final for 24 h
- Measurement: 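Cell viability from CellTiter-Fluor signal and caspase activity from luminescence after 24 h vorinostat at 2.5 µM, given as robust z-scores and as ratios to mock-transfected wells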
- Reading the numbers: viability robust z-score: higher = more viable cells; caspase robust z-score: higher = more caspase activity, more apoptosis
- Rule for the call: 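a mimic counts as active if it lands in a lowered-viability class or a caspase-activation class; wells with too few cells without drug are left out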

hsa-miR-1301 → viability robust z-score = 1.18; caspase robust z-score = 1.6; viability hit class = no change; caspase hit class = no change; Outcome = inactive
hsa-miR-1976 → viability robust z-score = -0.88; caspase robust z-score = 0.74; viability hit class = no change; caspase hit class = no change; Outcome = inactive
hsa-miR-648 → viability robust z-score = -1.4; caspase robust z-score = 0.64; viability hit class = no change; caspase hit class = no change; Outcome = inactive
hsa-miR-541 → viability robust z-score = -2.45; caspase robust z-score = 3.03; viability hit class = no change; caspase hit class = no change; Outcome = inactive
hsa-miR-646 → viability robust z-score = -3.52; caspase robust z-score = 2.1; viability hit class = reduced viability; caspase hit class = no change; Outcome = active
hsa-miR-190 → viability robust z-score = -0.22; caspase robust z-score = -0.95; viability hit class = no change; caspase hit class = no change; Outcome = inactive
hsa-miR-30a* → viability robust z-score = -0.34; caspase robust z-score = -0.47; viability hit class = no change; caspase hit class = no change; Outcome = inactive
hsa-miR-628-5p → viability robust z-score = -0.34; caspase robust z-score = 1.23; viability hit class = no change; caspase hit class = no change; Outcome = inactive
hsa-miR-362-5p → viability robust z-score = -0.34; caspase robust z-score = 0.24; viability hit class = no change; caspase hit class = no change; Outcome = inactive
hsa-miR-650 → viability robust z-score = -0.45; caspase robust z-score = 0.62; viability hit class = no change; caspase hit class = no change; Outcome = inactive
hsa-miR-96* → viability robust z-score = -0.45; caspase robust z-score = 0.22; viability hit class = no change; caspase hit class = no change; Outcome = inactive
hsa-miR-591 → viability robust z-score = -0.62; caspase robust z-score = -0.23; viability hit class = no change; caspase hit class = no change; Outcome = inactive
hsa-miR-367* → viability robust z-score = 0.48; caspase robust z-score = -0.54; viability hit class = no change; caspase hit class = no change; Outcome = inactive
hsa-miR-1255b → viability robust z-score = -0.84; caspase robust z-score = 4.21; viability hit class = no change; caspase hit class = no change; Outcome = inactive
hsa-miR-1305 → viability robust z-score = 0.65; caspase robust z-score = -0.46; viability hit class = no change; caspase hit class = no change; Outcome = inactive
hsa-miR-326 → viability robust z-score = -2.02; caspase robust z-score = 2.96; viability hit class = no change; caspase hit class = no change; Outcome = inactive
hsa-miR-143* → viability robust z-score = 0.4; caspase robust z-score = -0.05; viability hit class = no change; caspase hit class = no change; Outcome = inactive
hsa-miR-18b → viability robust z-score = 0.16; caspase robust z-score = 2.49; viability hit class = no change; caspase hit class = no change; Outcome = inactive
